Consider one molecule from paper PMC6294359.

For this assay, the target named is T1, Human N-terminally GST-tagged VAP-A (vesicle-associated membrane protein-associated protein A) (human) (UniProt Q9P0L0).
T1 sequence: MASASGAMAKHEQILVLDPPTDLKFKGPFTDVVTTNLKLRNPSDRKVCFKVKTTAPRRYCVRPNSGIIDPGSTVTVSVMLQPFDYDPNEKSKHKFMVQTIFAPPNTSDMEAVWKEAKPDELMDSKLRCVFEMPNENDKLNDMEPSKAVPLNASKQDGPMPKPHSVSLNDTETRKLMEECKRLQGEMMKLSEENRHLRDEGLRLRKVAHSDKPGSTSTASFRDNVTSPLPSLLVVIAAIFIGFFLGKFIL
Briefly: pull-down; 0.5 uM His-bGLTP, alone (CTRL) or pre-incubated with 5 uM glycolipid (GlcCer of different acyl chain lengths, or POPC; in DMSO) in 1x PBS pH 7.4 for 45 min at 37°C; 2.5 uM GST-VAP-A added, 30 min at 37°C; captured on Glutathione Sepharose 4 Fast Flow beads 1 h at 4°C, washed with 20 mM Tris-HCl, 150 mM NaCl, 1 mM EDTA, 10% glycerol, 0.1% Triton X-100, pH 7.4; Western blot with anti-GLTP and anti-GST; both purified.

Results are given in words; binding and its absence hold for the method and conditions named. Some entries that bind do so weakly or less than the wild type. Tags and fused reporters may be left off the sequences shown.

B1: Bovine His-GLTP (glycolipid transfer protein) (protein, UniProt P68265 1-209)
chain: MALLAEHLLRPLPADKQIETGPFLEAVSHLPPFFDCLGSPVFTPIKADISGNITKIKAVYDTNPTKFRTLQNILEVEKEMYGAEWPKVGATLALMWLKRGLRFIQVFLQSICDGERDENHPNLIRVNATKAYEMALKKYHGWIVQKIFQAALYAAPYKSDFLKALSKGQNVTEEECLEKVRLFLVNYTATIDVIYEMYTRMNAELNYKV
Consider B1, for which the binding result is reported as “binds”.
